Assay [1] deals with Recombinant STAT6 protein (STAT6 (W123-T658)) (Homo sapiens, UniProt P42226). Description: STAT6 Fluorescence Polarization (FP) Assay. The note with it: read-out: STAT6 (FP assay IC50 class); STAT6 (W123-T658) 250 nM, probe 5-FAM-ApYKPFQDLI-NH2 2 nM, 45-minute incubation.
In assay [2] the target is Recombinant STAT3 protein (STAT3 (G127-I722)) (Homo sapiens, UniProt P40763). Nature of the assay: STAT3 Fluorescence Polarization (FP) Assay. The note with it: read-out: STAT3 (FP assay IC50 class); STAT3 (G127-I722) 25 nM, probe 5-FAM-GpYLPQTV-NH2 2 nM, 45-minute incubation.
Assay [3] concerns the target pY641-STAT6 in PBMC (Homo sapiens, UniProt P42226). Description: MSD-pSTAT-PBMC Assay (pSTAT6, IL-4 stimulated). The note with it: read-out: STAT6, compound 3 hrs, then 1 ng/mL IL-4 for 10 min, Table 115.

Protein sequences, listed by entry. Tags and fused reporters are not part of them. Residues count along the entry.
UniProt P42226, 123-658 limits assumed: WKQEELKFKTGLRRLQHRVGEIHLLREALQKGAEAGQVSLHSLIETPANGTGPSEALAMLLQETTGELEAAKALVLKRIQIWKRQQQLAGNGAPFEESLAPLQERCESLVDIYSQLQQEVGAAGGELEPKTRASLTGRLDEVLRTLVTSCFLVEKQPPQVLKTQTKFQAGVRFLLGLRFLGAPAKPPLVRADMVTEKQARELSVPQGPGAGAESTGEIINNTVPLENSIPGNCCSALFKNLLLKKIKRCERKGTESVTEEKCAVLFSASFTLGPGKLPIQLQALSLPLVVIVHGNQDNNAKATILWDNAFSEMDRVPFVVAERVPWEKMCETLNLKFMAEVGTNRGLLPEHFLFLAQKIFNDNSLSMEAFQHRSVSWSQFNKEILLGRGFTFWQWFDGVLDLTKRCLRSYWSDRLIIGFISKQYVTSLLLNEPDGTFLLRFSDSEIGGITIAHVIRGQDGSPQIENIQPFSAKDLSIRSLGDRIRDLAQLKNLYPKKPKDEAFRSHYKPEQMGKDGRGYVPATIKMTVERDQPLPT
UniProt P42226, whole entry: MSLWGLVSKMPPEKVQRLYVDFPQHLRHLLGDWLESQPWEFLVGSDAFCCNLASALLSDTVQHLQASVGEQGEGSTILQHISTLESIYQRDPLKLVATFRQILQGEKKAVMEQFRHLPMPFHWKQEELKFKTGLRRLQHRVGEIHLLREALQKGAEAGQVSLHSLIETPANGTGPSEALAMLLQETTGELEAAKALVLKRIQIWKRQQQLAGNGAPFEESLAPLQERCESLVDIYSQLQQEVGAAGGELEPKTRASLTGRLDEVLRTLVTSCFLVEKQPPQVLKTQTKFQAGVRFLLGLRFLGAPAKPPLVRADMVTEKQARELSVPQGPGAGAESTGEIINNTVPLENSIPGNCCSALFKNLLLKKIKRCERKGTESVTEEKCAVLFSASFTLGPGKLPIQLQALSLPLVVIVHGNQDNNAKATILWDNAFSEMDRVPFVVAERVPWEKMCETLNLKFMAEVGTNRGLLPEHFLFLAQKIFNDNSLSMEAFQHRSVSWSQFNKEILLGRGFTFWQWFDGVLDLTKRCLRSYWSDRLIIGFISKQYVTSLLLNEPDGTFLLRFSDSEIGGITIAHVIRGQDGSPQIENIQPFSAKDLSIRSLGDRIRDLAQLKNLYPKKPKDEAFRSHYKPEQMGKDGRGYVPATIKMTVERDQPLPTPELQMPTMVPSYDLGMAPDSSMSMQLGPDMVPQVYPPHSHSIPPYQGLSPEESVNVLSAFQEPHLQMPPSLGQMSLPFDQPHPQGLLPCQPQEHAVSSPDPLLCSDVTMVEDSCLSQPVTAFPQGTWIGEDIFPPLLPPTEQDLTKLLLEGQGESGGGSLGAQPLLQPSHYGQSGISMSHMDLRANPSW
UniProt P40763, 127-722 limits assumed: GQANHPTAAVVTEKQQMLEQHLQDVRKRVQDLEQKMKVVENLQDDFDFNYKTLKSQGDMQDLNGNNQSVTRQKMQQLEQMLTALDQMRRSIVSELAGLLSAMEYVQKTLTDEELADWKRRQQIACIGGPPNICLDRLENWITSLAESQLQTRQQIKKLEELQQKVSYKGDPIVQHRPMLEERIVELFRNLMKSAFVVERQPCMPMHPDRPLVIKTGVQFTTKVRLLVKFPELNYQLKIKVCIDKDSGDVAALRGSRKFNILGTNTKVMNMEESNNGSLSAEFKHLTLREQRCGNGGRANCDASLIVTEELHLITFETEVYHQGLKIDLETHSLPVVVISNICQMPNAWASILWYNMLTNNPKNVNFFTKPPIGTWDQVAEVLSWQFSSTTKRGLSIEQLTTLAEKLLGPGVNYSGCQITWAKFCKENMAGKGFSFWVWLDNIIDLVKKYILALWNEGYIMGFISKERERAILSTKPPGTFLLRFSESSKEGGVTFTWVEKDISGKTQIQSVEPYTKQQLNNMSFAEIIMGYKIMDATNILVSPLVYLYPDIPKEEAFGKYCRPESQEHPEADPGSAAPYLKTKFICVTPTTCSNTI

Structures are written as SMILES. The match of structure and compound is tentative.

Turning to `CC1C[C@H]2CC[C@@H](C(=O)N3C[C@@H](C#N)[C@H](c4ccccc4)C3)N2C(=O)[C@@H](NC(=O)c2cc3cc(C(F)(F)P(=O)(O)O)ccc3s2)C1` (some centres unmarked), the IC50 in assay [1] is less than 300 nM; in assay [2] it was 100 to 1000 nM. With `CCCOC(=O)[C@H](C)NP(=O)(Oc1ccccc1)[C@@H](F)c1ccc2sc(C(=O)N[C@H]3CCCC[C@H]4CC[C@@H](C(=O)N5C[C@@H](c6cccnc6)CC56CC6)N4C3=O)cc2c1` (single isomer, unassigned), the IC50 in assay [3] is less than 100 nM. For `Cn1ccc(C2CN(C(=O)[C@@H]3CC[C@@H]4CCCC[C@H](NC(=O)c5ccc6ccc(C(F)(F)P(=O)(O)O)cc6c5)C(=O)N43)C3(CC3)C2)cc1=O` (some centres unmarked), the IC50 in assay [1] was less than 300 nM; in assay [2], 1000 to 10000 nM.
